± gives the standard deviation of the averaged measurements. The list shows a part of the results.
Compound: Nc1nc2c(ncn2[C@@H]2O[C@H](COP(=O)(O)OP(=O)(O)OP(=O)(O)O)[C@@H](O)[C@H]2O)c(=O)[nH]1 [guanosine triphosphate]
Experiment: NP40-soluble protein abundance relative to vehicle (solubility fold change) (ratio); higher = more soluble protein in presence of GTP
Procedure, shortened: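 Data come from three independent experiments in which Dounce-homogenised Jurkat crude lysate was treated at eight concentrations from 0.1 to 10 mM. Treatment ran 10 min at room temperature and then 3 min at 37 °C, after which 0.8% NP40 and benzonase were added for 60 min at 4 °C before ultracentrifugation. The supernatant underwent TMT labelling and LC-MS/MS, and vsn-normalised intensities were expressed as fold change against the detergent-processed vehicle in each replicate.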

Protein sequences, listed by entry. Tags and fused reporters are not part of them. Lines headed by an entry give the natural chain unless they say otherwise; changes in a name come on top.
UniProt Q9H1K1: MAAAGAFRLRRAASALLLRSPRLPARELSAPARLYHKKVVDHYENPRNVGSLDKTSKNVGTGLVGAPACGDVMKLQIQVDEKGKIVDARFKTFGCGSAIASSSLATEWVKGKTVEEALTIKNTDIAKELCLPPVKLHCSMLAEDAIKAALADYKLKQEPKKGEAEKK
UniProt Q9NT62, whole entry: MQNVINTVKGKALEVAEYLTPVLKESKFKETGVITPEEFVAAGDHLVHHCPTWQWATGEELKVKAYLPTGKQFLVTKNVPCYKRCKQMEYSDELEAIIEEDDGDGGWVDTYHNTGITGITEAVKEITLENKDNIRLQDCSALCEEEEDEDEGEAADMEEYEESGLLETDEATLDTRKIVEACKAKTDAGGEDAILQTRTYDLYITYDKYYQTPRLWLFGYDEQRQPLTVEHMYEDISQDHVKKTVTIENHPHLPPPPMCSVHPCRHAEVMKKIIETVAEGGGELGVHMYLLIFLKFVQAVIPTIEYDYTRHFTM
UniProt Q9H1E3: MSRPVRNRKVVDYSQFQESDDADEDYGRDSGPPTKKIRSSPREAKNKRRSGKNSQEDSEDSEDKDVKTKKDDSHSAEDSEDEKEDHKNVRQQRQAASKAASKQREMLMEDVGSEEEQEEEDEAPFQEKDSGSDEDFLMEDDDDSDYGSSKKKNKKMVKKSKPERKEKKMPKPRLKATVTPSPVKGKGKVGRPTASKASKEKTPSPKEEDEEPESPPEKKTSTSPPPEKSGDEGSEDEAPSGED
UniProt Q9H9F9, whole entry: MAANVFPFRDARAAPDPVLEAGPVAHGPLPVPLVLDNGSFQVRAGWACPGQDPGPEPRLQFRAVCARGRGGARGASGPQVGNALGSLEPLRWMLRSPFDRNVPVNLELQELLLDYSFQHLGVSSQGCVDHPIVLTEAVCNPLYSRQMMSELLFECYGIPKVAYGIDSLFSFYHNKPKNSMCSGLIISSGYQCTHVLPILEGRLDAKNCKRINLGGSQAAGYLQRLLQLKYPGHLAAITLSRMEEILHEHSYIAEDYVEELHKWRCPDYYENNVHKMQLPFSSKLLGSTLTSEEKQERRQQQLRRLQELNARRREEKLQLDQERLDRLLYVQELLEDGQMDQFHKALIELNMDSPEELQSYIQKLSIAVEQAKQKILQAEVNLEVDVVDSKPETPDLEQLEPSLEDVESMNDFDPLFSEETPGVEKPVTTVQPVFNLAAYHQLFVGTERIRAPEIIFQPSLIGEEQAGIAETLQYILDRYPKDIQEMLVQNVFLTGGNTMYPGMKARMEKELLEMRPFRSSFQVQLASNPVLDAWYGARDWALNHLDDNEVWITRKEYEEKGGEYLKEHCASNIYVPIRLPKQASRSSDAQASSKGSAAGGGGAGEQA
UniProt Q9H089: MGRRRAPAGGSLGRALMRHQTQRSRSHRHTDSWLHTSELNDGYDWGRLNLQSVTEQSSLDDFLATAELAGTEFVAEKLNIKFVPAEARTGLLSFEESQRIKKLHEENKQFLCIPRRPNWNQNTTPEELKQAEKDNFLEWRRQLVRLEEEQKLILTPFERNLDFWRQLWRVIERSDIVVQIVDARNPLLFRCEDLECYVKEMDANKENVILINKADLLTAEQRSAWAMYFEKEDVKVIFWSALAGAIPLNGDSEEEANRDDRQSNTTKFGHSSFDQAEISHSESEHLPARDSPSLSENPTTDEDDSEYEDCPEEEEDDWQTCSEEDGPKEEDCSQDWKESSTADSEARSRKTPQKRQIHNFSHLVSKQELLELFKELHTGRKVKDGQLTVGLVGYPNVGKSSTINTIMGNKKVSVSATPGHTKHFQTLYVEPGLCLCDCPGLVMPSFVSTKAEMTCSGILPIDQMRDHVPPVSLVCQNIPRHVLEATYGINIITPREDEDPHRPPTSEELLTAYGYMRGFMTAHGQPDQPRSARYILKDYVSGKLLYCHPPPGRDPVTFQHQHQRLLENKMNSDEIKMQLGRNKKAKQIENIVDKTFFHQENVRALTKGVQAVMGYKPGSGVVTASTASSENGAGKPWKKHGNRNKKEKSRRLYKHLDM
UniProt Q9H8G2: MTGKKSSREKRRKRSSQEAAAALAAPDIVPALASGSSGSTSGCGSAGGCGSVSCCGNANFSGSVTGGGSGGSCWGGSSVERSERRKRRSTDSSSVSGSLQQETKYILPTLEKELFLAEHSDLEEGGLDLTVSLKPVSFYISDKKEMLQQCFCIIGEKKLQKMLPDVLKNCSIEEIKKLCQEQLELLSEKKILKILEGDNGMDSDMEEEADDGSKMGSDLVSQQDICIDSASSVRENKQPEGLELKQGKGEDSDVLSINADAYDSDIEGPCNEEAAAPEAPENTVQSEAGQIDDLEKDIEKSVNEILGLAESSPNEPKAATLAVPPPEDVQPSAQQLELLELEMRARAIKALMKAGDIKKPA
UniProt Q9HBH0: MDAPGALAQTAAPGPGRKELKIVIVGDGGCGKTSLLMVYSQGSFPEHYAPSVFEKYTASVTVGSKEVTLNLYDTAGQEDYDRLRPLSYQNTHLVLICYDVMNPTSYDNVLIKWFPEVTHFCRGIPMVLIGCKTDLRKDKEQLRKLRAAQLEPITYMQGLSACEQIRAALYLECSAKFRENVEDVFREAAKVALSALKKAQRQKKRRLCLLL
UniProt Q9NPF5, whole entry: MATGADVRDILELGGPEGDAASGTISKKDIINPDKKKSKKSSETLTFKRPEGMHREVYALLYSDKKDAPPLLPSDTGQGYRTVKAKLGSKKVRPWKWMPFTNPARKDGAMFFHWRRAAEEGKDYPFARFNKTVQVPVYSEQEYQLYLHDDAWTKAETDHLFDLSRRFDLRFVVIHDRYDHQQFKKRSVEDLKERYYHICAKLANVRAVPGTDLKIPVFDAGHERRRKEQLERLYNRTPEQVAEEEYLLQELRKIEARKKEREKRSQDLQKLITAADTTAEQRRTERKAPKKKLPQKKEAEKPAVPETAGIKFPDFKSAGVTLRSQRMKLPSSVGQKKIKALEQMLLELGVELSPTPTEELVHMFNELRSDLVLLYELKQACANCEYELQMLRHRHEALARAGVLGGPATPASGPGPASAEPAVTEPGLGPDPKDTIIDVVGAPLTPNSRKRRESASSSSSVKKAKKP
UniProt Q9NRN7: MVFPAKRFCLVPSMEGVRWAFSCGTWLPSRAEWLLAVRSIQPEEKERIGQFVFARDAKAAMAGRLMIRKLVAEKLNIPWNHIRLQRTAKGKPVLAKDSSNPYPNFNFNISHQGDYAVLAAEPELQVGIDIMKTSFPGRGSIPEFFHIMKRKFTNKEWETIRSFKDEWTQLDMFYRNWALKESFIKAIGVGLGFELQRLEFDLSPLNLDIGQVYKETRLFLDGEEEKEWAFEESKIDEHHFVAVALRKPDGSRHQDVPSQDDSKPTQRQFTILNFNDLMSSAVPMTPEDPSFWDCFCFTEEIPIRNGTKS
UniProt Q9NSE4: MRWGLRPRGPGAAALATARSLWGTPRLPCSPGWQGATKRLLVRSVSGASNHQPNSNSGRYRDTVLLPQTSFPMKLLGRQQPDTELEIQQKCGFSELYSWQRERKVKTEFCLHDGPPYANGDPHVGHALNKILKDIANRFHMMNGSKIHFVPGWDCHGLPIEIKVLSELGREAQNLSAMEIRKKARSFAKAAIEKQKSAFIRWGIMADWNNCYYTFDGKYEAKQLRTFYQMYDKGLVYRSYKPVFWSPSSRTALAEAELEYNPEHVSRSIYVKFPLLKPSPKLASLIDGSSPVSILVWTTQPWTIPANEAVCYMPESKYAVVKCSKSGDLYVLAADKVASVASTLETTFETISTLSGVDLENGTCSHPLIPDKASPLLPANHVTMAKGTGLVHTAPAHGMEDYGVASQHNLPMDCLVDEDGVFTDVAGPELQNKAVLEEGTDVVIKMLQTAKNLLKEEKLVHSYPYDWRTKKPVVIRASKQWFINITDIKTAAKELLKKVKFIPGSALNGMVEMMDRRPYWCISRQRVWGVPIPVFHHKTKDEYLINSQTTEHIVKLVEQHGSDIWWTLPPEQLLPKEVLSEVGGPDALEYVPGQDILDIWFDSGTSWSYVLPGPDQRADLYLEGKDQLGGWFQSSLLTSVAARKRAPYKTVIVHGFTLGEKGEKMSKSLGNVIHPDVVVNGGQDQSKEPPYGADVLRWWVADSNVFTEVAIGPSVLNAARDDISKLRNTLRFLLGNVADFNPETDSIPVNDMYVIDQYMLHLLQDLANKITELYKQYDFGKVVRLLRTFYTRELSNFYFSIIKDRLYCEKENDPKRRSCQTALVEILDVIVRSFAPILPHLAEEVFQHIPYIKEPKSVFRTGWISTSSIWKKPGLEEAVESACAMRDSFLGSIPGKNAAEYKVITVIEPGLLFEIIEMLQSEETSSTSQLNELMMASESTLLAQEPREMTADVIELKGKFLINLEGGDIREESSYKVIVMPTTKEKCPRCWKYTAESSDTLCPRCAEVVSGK
UniProt Q9H3G5: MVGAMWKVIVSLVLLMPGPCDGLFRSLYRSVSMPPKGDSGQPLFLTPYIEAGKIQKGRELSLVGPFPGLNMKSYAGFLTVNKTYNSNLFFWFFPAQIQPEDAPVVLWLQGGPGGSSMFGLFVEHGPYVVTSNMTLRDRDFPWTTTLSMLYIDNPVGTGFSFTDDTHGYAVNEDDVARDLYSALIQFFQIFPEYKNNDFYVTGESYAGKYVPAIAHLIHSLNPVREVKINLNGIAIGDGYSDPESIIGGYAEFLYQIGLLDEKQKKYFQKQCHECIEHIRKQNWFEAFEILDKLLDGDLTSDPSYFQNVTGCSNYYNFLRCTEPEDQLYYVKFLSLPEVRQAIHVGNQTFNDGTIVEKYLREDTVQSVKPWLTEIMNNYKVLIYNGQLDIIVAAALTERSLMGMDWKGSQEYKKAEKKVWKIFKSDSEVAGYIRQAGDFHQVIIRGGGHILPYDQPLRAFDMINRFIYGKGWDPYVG
UniProt Q9NS23: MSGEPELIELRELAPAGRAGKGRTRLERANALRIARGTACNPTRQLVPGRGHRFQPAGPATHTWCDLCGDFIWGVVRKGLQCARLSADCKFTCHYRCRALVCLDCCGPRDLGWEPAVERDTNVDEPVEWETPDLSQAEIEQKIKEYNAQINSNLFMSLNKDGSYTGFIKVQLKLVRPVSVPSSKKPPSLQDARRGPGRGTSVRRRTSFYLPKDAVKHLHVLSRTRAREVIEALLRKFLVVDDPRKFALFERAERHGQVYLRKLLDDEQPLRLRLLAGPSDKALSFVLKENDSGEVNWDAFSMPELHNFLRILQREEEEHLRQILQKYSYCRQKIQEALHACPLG

## ISCU (UniProt Q9H1K1)
concentration: 0.1mM
  NP40-soluble protein abundance: 0.893 ± 0.03
concentration: 0.5mM
  NP40-soluble protein abundance: 0.888 ± 0.043
concentration: 1mM
  NP40-soluble protein abundance: 0.92 ± 0.041
concentration: 2mM
  NP40-soluble protein abundance: 0.906 ± 0.084
concentration: 4mM
  NP40-soluble protein abundance: 0.893 ± 0.076
concentration: 6mM
  NP40-soluble protein abundance: 0.909 ± 0.093
concentration: 8mM
  NP40-soluble protein abundance: 0.898 ± 0.056
concentration: 10mM
  NP40-soluble protein abundance: 0.946 ± 0.043

## UniProt Q9NT62 and related entries
concentration: 0.1mM
  NP40-soluble protein abundance: 0.914 ± 0.083
concentration: 0.5mM
  NP40-soluble protein abundance: 0.904 ± 0.066
concentration: 1mM
  NP40-soluble protein abundance: 0.922 ± 0.095
concentration: 2mM
  NP40-soluble protein abundance: 0.882 ± 0.1
concentration: 4mM
  NP40-soluble protein abundance: 0.894 ± 0.12
concentration: 6mM
  NP40-soluble protein abundance: 0.844 ± 0.079
concentration: 8mM
  NP40-soluble protein abundance: 0.89 ± 0.11
concentration: 10mM
  NP40-soluble protein abundance: 0.903 ± 0.091

## NUCKS1 (UniProt Q9H1E3)
concentration: 0.1mM
  NP40-soluble protein abundance: 0.807 ± 0.074
concentration: 0.5mM
  NP40-soluble protein abundance: 0.811 ± 0.022
concentration: 1mM
  NP40-soluble protein abundance: 0.996 ± 0.14
concentration: 2mM
  NP40-soluble protein abundance: 0.841 ± 0.063
concentration: 4mM
  NP40-soluble protein abundance: 0.747 ± 0.077
concentration: 6mM
  NP40-soluble protein abundance: 0.763 ± 0.072
concentration: 8mM
  NP40-soluble protein abundance: 0.758 ± 0.098
concentration: 10mM
  NP40-soluble protein abundance: 0.812 ± 0.094

## UniProt Q9HD33 and related entries
concentration: 0.1mM
  NP40-soluble protein abundance: 1.01 ± 0.017
concentration: 0.5mM
  NP40-soluble protein abundance: 1.16 ± 0.087
concentration: 1mM
  NP40-soluble protein abundance: 1.34 ± 0.23
concentration: 2mM
  NP40-soluble protein abundance: 1.55 ± 0.39
concentration: 4mM
  NP40-soluble protein abundance: 1.7 ± 0.52
concentration: 6mM
  NP40-soluble protein abundance: 1.86 ± 0.49
concentration: 8mM
  NP40-soluble protein abundance: 2.03 ± 0.59
concentration: 10mM
  NP40-soluble protein abundance: 2.05 ± 0.64

## ACTR5 (UniProt Q9H9F9)
concentration: 0.1mM
  NP40-soluble protein abundance: 0.9 ± 0.13
concentration: 0.5mM
  NP40-soluble protein abundance: 1.04 ± 0.074
concentration: 1mM
  NP40-soluble protein abundance: 1.07 ± 0.03
concentration: 2mM
  NP40-soluble protein abundance: 1.13 ± 0.031
concentration: 4mM
  NP40-soluble protein abundance: 1.14 ± 0.093
concentration: 6mM
  NP40-soluble protein abundance: 1.18 ± 0.15
concentration: 8mM
  NP40-soluble protein abundance: 1.17 ± 0.1
concentration: 10mM
  NP40-soluble protein abundance: 1.25 ± 0.2

## LSG1 (UniProt Q9H089)
concentration: 0.1mM
  NP40-soluble protein abundance: 1.04 ± 0.03
concentration: 0.5mM
  NP40-soluble protein abundance: 1.06 ± 0.072
concentration: 1mM
  NP40-soluble protein abundance: 1.05 ± 0.06
concentration: 2mM
  NP40-soluble protein abundance: 1.05 ± 0.033
concentration: 4mM
  NP40-soluble protein abundance: 1.05 ± 0.052
concentration: 6mM
  NP40-soluble protein abundance: 1.06 ± 0.077
concentration: 8mM
  NP40-soluble protein abundance: 1.08 ± 0.096
concentration: 10mM
  NP40-soluble protein abundance: 1.11 ± 0.063

## UniProt Q9H8G2
concentration: 0.1mM
  NP40-soluble protein abundance: 0.952 ± 0.098
concentration: 0.5mM
  NP40-soluble protein abundance: 0.944 ± 0.046
concentration: 1mM
  NP40-soluble protein abundance: 1.09 ± 0.13
concentration: 2mM
  NP40-soluble protein abundance: 1.1 ± 0.13
concentration: 4mM
  NP40-soluble protein abundance: 1.09 ± 0.088
concentration: 6mM
  NP40-soluble protein abundance: 1.15 ± 0.078
concentration: 8mM
  NP40-soluble protein abundance: 1.14 ± 0.052
concentration: 10mM
  NP40-soluble protein abundance: 1.25 ± 0.059

## RHOF (UniProt Q9HBH0)
concentration: 0.1mM
  NP40-soluble protein abundance: 1.13 ± 0.1
concentration: 0.5mM
  NP40-soluble protein abundance: 1.09 ± 0.1
concentration: 1mM
  NP40-soluble protein abundance: 1.02 ± 0.11
concentration: 2mM
  NP40-soluble protein abundance: 1.05 ± 0.13
concentration: 4mM
  NP40-soluble protein abundance: 1.08 ± 0.025
concentration: 6mM
  NP40-soluble protein abundance: 1.01 ± 0.087
concentration: 8mM
  NP40-soluble protein abundance: 0.991 ± 0.033
concentration: 10mM
  NP40-soluble protein abundance: 1.01 ± 0.072

## DMAP1 (UniProt Q9NPF5)
concentration: 0.1mM
  NP40-soluble protein abundance: 1.04 ± 0.056
concentration: 0.5mM
  NP40-soluble protein abundance: 1.06 ± 0.059
concentration: 1mM
  NP40-soluble protein abundance: 1.11 ± 0.079
concentration: 2mM
  NP40-soluble protein abundance: 1.17 ± 0.099
concentration: 4mM
  NP40-soluble protein abundance: 1.22 ± 0.12
concentration: 6mM
  NP40-soluble protein abundance: 1.24 ± 0.15
concentration: 8mM
  NP40-soluble protein abundance: 1.29 ± 0.2
concentration: 10mM
  NP40-soluble protein abundance: 1.26 ± 0.18

## AASDHPPT (UniProt Q9NRN7)
concentration: 0.1mM
  NP40-soluble protein abundance: 1.02 ± 0.025
concentration: 0.5mM
  NP40-soluble protein abundance: 1.03 ± 0.059
concentration: 1mM
  NP40-soluble protein abundance: 0.884 ± 0.025
concentration: 2mM
  NP40-soluble protein abundance: 0.883 ± 0.041
concentration: 4mM
  NP40-soluble protein abundance: 0.878 ± 0.024
concentration: 6mM
  NP40-soluble protein abundance: 0.855 ± 0.034
concentration: 8mM
  NP40-soluble protein abundance: 0.804 ± 0.066
concentration: 10mM
  NP40-soluble protein abundance: 0.807 ± 0.075

## IARS2 (UniProt Q9NSE4)
concentration: 0.1mM
  NP40-soluble protein abundance: 1 ± 0.029
concentration: 0.5mM
  NP40-soluble protein abundance: 1.02 ± 0.046
concentration: 1mM
  NP40-soluble protein abundance: 0.925 ± 0.014
concentration: 2mM
  NP40-soluble protein abundance: 0.916 ± 0.04
concentration: 4mM
  NP40-soluble protein abundance: 0.894 ± 0.05
concentration: 6mM
  NP40-soluble protein abundance: 0.901 ± 0.03
concentration: 8mM
  NP40-soluble protein abundance: 0.868 ± 0.027
concentration: 10mM
  NP40-soluble protein abundance: 0.847 ± 0.053

## CPVL (UniProt Q9H3G5)
concentration: 0.1mM
  NP40-soluble protein abundance: 0.938 ± 0.021
concentration: 0.5mM
  NP40-soluble protein abundance: 0.964 ± 0.037
concentration: 1mM
  NP40-soluble protein abundance: 0.94 ± 0.017
concentration: 2mM
  NP40-soluble protein abundance: 0.961 ± 0.042
concentration: 4mM
  NP40-soluble protein abundance: 0.936 ± 0.018
concentration: 6mM
  NP40-soluble protein abundance: 0.953 ± 0.043
concentration: 8mM
  NP40-soluble protein abundance: 0.904 ± 0.033
concentration: 10mM
  NP40-soluble protein abundance: 0.97 ± 0.021

## UniProt Q9NQW7-3
concentration: 0.1mM
  NP40-soluble protein abundance: 0.998 ± 0.018
concentration: 0.5mM
  NP40-soluble protein abundance: 1.01 ± 0.022
concentration: 1mM
  NP40-soluble protein abundance: 0.936 ± 0.015
concentration: 2mM
  NP40-soluble protein abundance: 0.925 ± 0.019
concentration: 4mM
  NP40-soluble protein abundance: 0.924 ± 0.026
concentration: 6mM
  NP40-soluble protein abundance: 0.92 ± 0.021
concentration: 8mM
  NP40-soluble protein abundance: 0.909 ± 0.034
concentration: 10mM
  NP40-soluble protein abundance: 0.877 ± 0.047

## UniProt Q9NS23 and related entries
concentration: 0.1mM
  NP40-soluble protein abundance: 0.978 ± 0.032
concentration: 0.5mM
  NP40-soluble protein abundance: 1.03 ± 0.098
concentration: 1mM
  NP40-soluble protein abundance: 1.04 ± 0.051
concentration: 2mM
  NP40-soluble protein abundance: 1.04 ± 0.058
concentration: 4mM
  NP40-soluble protein abundance: 1.05 ± 0.09
concentration: 6mM
  NP40-soluble protein abundance: 1.01 ± 0.022
concentration: 8mM
  NP40-soluble protein abundance: 0.971 ± 0.056
concentration: 10mM
  NP40-soluble protein abundance: 0.968 ± 0.11

## WDR61 (UniProt Q9GZS3)
concentration: 0.1mM
  NP40-soluble protein abundance: 1.01 ± 0.031
concentration: 0.5mM
  NP40-soluble protein abundance: 1.04 ± 0.073
concentration: 1mM
  NP40-soluble protein abundance: 0.973 ± 0.059
concentration: 2mM
  NP40-soluble protein abundance: 0.992 ± 0.084
concentration: 4mM
  NP40-soluble protein abundance: 0.987 ± 0.068
concentration: 6mM
  NP40-soluble protein abundance: 1 ± 0.071
concentration: 8mM
  NP40-soluble protein abundance: 0.965 ± 0.052
concentration: 10mM
  NP40-soluble protein abundance: 0.904 ± 0.032
